Over roughly 1,100 compounds, “Renilla luciferase signal (cell health) relative to plate median” has its median near 0.97; the highest 2% begin near 1.6. The entries are a selection whose mix differs from that of the whole data set.
Test system: HEK293T (UBE3A T485A transfected, BAR Wnt reporter)
Experiment: Renilla luciferase signal (cell health) relative to plate median (fold (linear ratio)); higher = higher Renilla signal
Conditions: 24 h
Method in brief: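 HEK293T cells were seeded at 4500 cells/well in white 384-well plates and grown in DMEM with 10% FBS at 37°C and 5% CO2. The cells were transfected using Fugene 6 with a BAR firefly luciferase Wnt reporter, TK-Renilla and an expression plasmid, and four hours later robots added the chemicals at 0.01–100 uM for 24 h before a Dual-Glo luciferase readout. Wnt activity was taken as the firefly/Renilla ratio and cell health as raw Renilla, each median-centred per plate. Values are averages of four biological replicates.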

Row | SMILES | Renilla luciferase signal (concentration: 0.1 uM) | Renilla luciferase signal (concentration: 1 uM) | Renilla luciferase signal (concentration: 10 uM) | Renilla luciferase signal (concentration: 100 uM) | Renilla luciferase signal (concentration: 0.01 uM)
1 | O=P(OC(CCl)CCl)(OC(CCl)CCl)OC(CCl)CCl | 1.02 | 1.07 | 0.997 | 0.466 | 
2 | Oc1cc(Cl)c(Cl)cc1Cl [2,4,5-Trichlorophenol] | 0.91 | 0.887 | 0.884 | 0.0359 | 
3 | Clc1nc(Cl)c(Cl)c(Cl)c1Cl [Pentachloropyridine] | 0.994 | 0.982 | 1.12 | 0.962 | 
4 | CCCCOC(=O)c1ccccc1C(=O)O [Monobutyl phthalate] | 0.862 | 0.73 | 1.21 | 2.17 | 0.968
5 | CNC(=S)[S-].O.O.O.[Na+] [Metam-sodium hydrate] |  |  |  | 1.67 | 
6 | COc1ccc(-c2ccccc2)cc1NNC(=O)OC(C)C [Bifenazate] | 1.21 | 1.11 | 1.06 | 0.851 | 1.24
7 | O=[N+]([O-])c1ccc(Cl)c(Cl)c1 [3,4-Dichloronitrobenzene] | 1.12 | 1.04 | 1 | 1.27 | 
8 | O=C(O)COc1nc(Cl)c(Cl)cc1Cl [Triclopyr] |  |  |  | 1.84 | 
9 | O=C(O)c1cc(Oc2ccc(C(F)(F)F)cc2Cl)ccc1[N+](=O)[O-] [Acifluorfen] | 1.25 | 0.942 | 1.02 | 1.67 | 1.17
10 | CC(C)Nc1nc(Cl)nc(NC(C)C)n1 [Propazine] | 0.863 | 0.911 | 0.848 | 1.3 | 0.624
11 | CCOC(=O)C(C)OC(=O)c1cc(Oc2ccc(C(F)(F)F)cc2Cl)ccc1[N+](=O)[O-] (centres undefined) [Lactofen] | 0.611 | 0.876 | 0.801 | 0.32 | 0.928
12 | COS(C)(=O)=O [Methyl methanesulfonate] | 0.955 | 0.933 | 1.04 | 1.2 | 
13 | C[C@]12CCC(=O)C=C1CC[C@@H]1[C@@H]2CC[C@@]2(C)[C@H]1CC[C@]2(C)O [17-Methyltestosterone] | 0.928 | 0.85 | 0.954 | 0.291 | 
14 | c1nc[nH]n1 [1H-1,2,4-Triazole] | 0.873 | 0.956 | 0.885 | 1.12 | 
15 | O=[N+]([O-])c1ccc(Oc2ccc(Cl)cc2Cl)cc1 [Nitrofen] | 1.06 | 1.17 | 1.05 | 1.69 | 
16 | ClC(Cl)(Cl)c1ccccc1 [Benzotrichloride] | 0.82 | 0.9 | 0.872 | 1.04 | 
17 | Cc1cc(O)ccc1Cl [4-Chloro-3-methylphenol] | 0.999 | 1.09 | 0.977 | 1.06 | 
18 | CCOP(=S)(OCC)OC(Cl)C(Cl)(Cl)Cl (centres undefined) [Chlorethoxyfos] | 0.673 | 0.754 | 0.769 | 1.03 | 0.648
19 | CN(C)C(=S)SSC(=S)N(C)C [Thiram] | 1.02 | 0.965 | 1.13 | 0.0483 | 1.24
20 | CCC12COCN1COC2 [5-Ethyl-1-aza-3,7-dioxabicyclo[3.3.0]octane] | 0.93 | 1.08 | 1.1 | 1.35 | 
21 | CCC(=O)Nc1ccc(Cl)c(Cl)c1 [Propanil] | 1.07 | 1.04 | 1.09 | 0.949 | 1.29

Row | SMILES | Renilla luciferase signal (concentration: 0.1 uM) | Renilla luciferase signal (concentration: 1 uM) | Renilla luciferase signal (concentration: 10 uM) | Renilla luciferase signal (concentration: 100 uM) | Renilla luciferase signal (concentration: 0.01 uM)
22 | CCCCC(CC)COC(=O)CCCCC(=O)OCC(CC)CCCC (centres undefined) [Di(2-ethylhexyl) adipate] | 1.15 | 1.09 | 1.28 | 1.76 | 
23 | CCN(CC)N=O [N-Nitrosodiethylamine] | 1.02 | 0.957 | 1.07 | 1.08 | 
24 | O=C(O)c1c(Cl)ccc2cc(Cl)cnc12 [Quinclorac] |  |  |  | 1.88 | 
25 | CNC(=O)Oc1cccc(N=CN(C)C)c1.Cl [Formetanate hydrochloride] | 1.22 | 1.08 | 0.952 | 0.867 | 1.24
26 | CNC(=O)Oc1ccccc1OC(C)C [Propoxur] | 0.899 | 0.869 | 0.843 | 1.18 | 0.908
27 | CCCOC/C(=N\c1ccc(Cl)cc1C(F)(F)F)n1ccnc1 [Triflumizole] | 0.937 | 0.992 | 0.929 | 1.45 | 0.984
28 | CON=C(C(=O)OC)c1ccccc1CON=C(C)c1cccc(C(F)(F)F)c1 [Trifloxystrobin] | 0.97 | 0.972 | 0.619 | 0.0462 | 0.998
29 | CSC(=O)c1c(C(F)F)nc(C(F)(F)F)c(C(=O)SC)c1CC(C)C [Dithiopyr] | 0.813 | 0.927 | 0.835 | 1.14 | 0.664
30 | O=C1C2CC=CCC2C(=O)N1SC(Cl)(Cl)Cl (centres undefined) [Captan] | 1.04 | 0.975 | 1.02 | 0.036 | 1.19
31 | CN=C=S [Methyl isothiocyanate] |  |  |  | 1.71 | 
32 | CCOCCOC(C)=O [2-Ethoxyethyl acetate] | 1.02 | 0.9 | 0.931 | 0.935 | 
33 | CC(C)N(C(=O)SCC(Cl)=C(Cl)Cl)C(C)C [Tri-allate] |  |  |  | 1.76 | 
34 | CCNc1nc(Cl)nc(NC(C)(C)C)n1 [Terbutylazine] | 0.934 | 1.02 | 0.978 | 0.981 | 
35 | Cc1cccc([N+](=O)[O-])c1C [1,2-Dimethyl-3-nitrobenzene] | 1.03 | 0.965 | 1.03 | 1.13 | 
36 | C=C(C)CN(CC)c1c([N+](=O)[O-])cc(C(F)(F)F)cc1[N+](=O)[O-] [Ethalfluralin] | 1.03 | 1.09 | 1.14 | 1.31 | 1.26
37 | CN(C)c1ccc(C(=O)c2ccc(N(C)C)cc2)cc1 [Michler's ketone] | 1.09 | 1.03 | 0.702 | 0.267 | 
38 | CC1=C2C[C@H]3[C@@H](CC=C4C[C@@H](O)CC[C@@]43C)[C@@H]2CC[C@]12O[C@@H]1C[C@H](C)CN[C@H]1[C@H]2C [Cyclopamine] | 0.676 | 0.805 | 0.631 | 0.1 | 
39 | CCCCCCCCCCCCCN1CC(C)OC(C)C1 (centres undefined) [Tridemorph] | 1.09 | 0.987 | 1.02 | 1.13 | 
40 | CC(C)(OOC(C)(C)c1ccccc1)c1ccccc1 [Dicumyl peroxide] | 0.858 | 0.921 | 0.947 | 1.09 | 
41 | Cn1sc(Cl)cc1=O [5-Chloro-2-methyl-3(2H)-isothiazolone] | 0.935 | 0.861 | 1.02 | 0.105 | 
42 | CCC(C)n1c(=O)[nH]c(C)c(Br)c1=O (centres undefined) [Bromacil] | 0.99 | 1.09 | 1.05 | 1.59 | 0.972

Quoted at random: 2 entries already listed.
Row | SMILES | Renilla luciferase signal (concentration: 0.1 uM) | Renilla luciferase signal (concentration: 1 uM) | Renilla luciferase signal (concentration: 10 uM) | Renilla luciferase signal (concentration: 100 uM) | Renilla luciferase signal (concentration: 0.01 uM)
42 | CCC(C)n1c(=O)[nH]c(C)c(Br)c1=O (centres undefined) [Bromacil] | 0.99 | 1.09 | 1.05 | 1.59 | 0.972
22 | CCCCC(CC)COC(=O)CCCCC(=O)OCC(CC)CCCC (centres undefined) [Di(2-ethylhexyl) adipate] | 1.15 | 1.09 | 1.28 | 1.76 | 
